Assay results: paper doi:10.1101/687400
Results are given in words; binding and its absence hold for the method and conditions named. Binding seen in cells or lysates may run through a third protein. For some assays here: Binding can be weak; no strength is given.

Tests used:
[1] = target: FLAG-tagged MARV VP24 (Marburg virus (MARV)) (UniProt P35256); assay: co-IP
[2] = target: FLAG-tagged EBOV VP24 (Zaire ebolavirus (EBOV)) (UniProt Q05322); assay: co-IP

In the case of “HA-tagged Keap1 derived from the bat Myotis lucifugus (from UniProt G1PRL8)”, the binding [1] is reported as “binds” and the binding [2] is reported as “no binding”.
